These are yes or no findings as the source states them, for the method shown. Binding seen in cells or lysates may run through a third protein. For some of these results: Binding can be weak; no strength is given.

Here are results for 1 molecule from article PMC7923384.

Targets include Flag-ZMYND8 ΔPBP; Flag-ZMYND8 ΔC1; Flag-ZMYND8 ΔC2; Flag-ZMYND8 ΔC3.
What all share (assay): co-IP; tagged proteins (Flag-ZMYND8 and its truncation mutants, Myc-EZH2 WT or mutants) expressed by transfection in 293T cells, some with V5-CDK1 co-expressed; immunoprecipitation from lysate, Western blot; both orientations done
Background: Immunoblotting shows a protein as a band on a membrane.

B1: FOXM1 in 293T cells (protein, UniProt Q08050 1-763)
chain: MKTSPRRPLILKRRRLPLPVQNAPSETSEEEPKRSPAQQESNQAEASKEVAESNSCKFPAGIKIINHPTMPNTQVVAIPNNANIHSIITALTAKGKESGSSGPNKFILISCGGAPTQPPGLRPQTQTSYDAKRTEVTLETLGPKPAARDVNLPRPPGALCEQKRETCADGEAAGCTINNSLSNIQWLRKMSSDGLGSRSIKQEMEEKENCHLEQRQVKVEEPSRPSASWQNSVSERPPYSYMAMIQFAINSTERKRMTLKDIYTWIEDHFPYFKHIAKPGWKNSIRHNLSLHDMFVRETSANGKVSFWTIHPSANRYLTLDQVFKPLDPGSPQLPEHLESQQKRPNPELRRNMTIKTELPLGARRKMKPLLPRVSSYLVPIQFPVNQSLVLQPSVKVPLPLAASLMSSELARHSKRVRIAPKVLLAEEGIAPLSSAGPGKEEKLLFGEGFSPLLPVQTIKEEEIQPGEEMPHLARPIKVESPPLEEWPSPAPSFKEESSHSWEDSSQSPTPRPKKSYSGLRSPTRCVSEMLVIQHRERRERSRSRRKQHLLPPCVDEPELLFSEGPSTSRWAAELPFPADSSDPASQLSYSQEVGGPFKTPIKETLPISSTPSKSVLPRTPESWRLTPPAKVGGLDFSPVQTSQGASDPLPDPLGLMDLSTTPLQSAPPLESPQRLLSSEPLDLISVPFGNSSPSDIDVPKPGSPEPQVSGLAANRSLTEGLVLDTMNDSLSKILLDISFPGLDEDPLGPDNINWSQFIPELQ
On to B1, for which the binding result is “binds” with Flag-ZMYND8 ΔPBP, “no binding” with Flag-ZMYND8 ΔC1, “binds” with Flag-ZMYND8 ΔC2 and “binds” with Flag-ZMYND8 ΔC3.
